Source: PMC5412445, “ZeGlobalTox: An Innovative Approach to Address Organ Drug Toxicity Using Zebrafish” (International Journal of Molecular Sciences, 2017)

Key:
[1] = test system: wild type zebrafish embryos; test: in vivo; assay type: in vivo; conditions: embryos incubated 3 to 96 hpf; 5 logarithmic concentrations 0.1 µM to 1 mM; 1% DMSO
Text: (§1) Several issues were considered when planning the experimental protocol. The main concern was that drug-induced mortality and/or developmental toxicity (teratogenicity) could mask possible organ-toxicities appearing later in development. […] This preliminary assay allowed for the identification of non-mortal/non-teratogenic concentrations—no observed effect concentration (NOEC)—to use in the following assays. The hypothesis is that NOEC could affect organ physiology (organ toxicity), while uncoupled from putative developmental toxicity side-effects affecting organ development or function. Another consideration was to start drug incubations at 96 hours post fertilization (hpf), when the analysed organs are close to or already developed (Figure 1B). The overall aim is to understand the drug impact on organ physiology and function rather than early embryogenesis. The third consideration was to organize the sequential organ evaluation during the experimental and drug incubation time.
(§2) 1% DMSO, which is the constant solvent concentration in all conditions, was used as the negative control.
(§3) Thus, 20 wild type (wt) zebrafish embryos per condition were incubated with tested compounds from 3 to 96 hpf. The test was performed in 5 logarithmic concentrations per drug (from 0.1 µM to 1 mM). Each larva was analysed for mortality, body deformity, edema, tail detachment, pigmentation, heart activity, heart edema, and motor activity. […] DMSO 1% was used as the negative control in all experiments.

[2] = in vivo; assay type: in vivo; conditions: zebrafish, in vivo; mortality; embryos incubated 3 to 96 hpf; 5 logarithmic concentrations 0.1 µM to 1 mM; 1% DMSO
Text: as §1, §2, §3

[3] = test system: zebrafish larvae heart; test: ZeGlobalTox cardiotoxicity evaluation (heart video, ZeCardio software); assay type: in vivo, zebrafish (Danio rerio); conditions: 100 hpf, 4 h after drug incubation at NOEC (haloperidol 10 µM)
Protocol: Four cardiac parameters were evaluated to assess whether a compound was cardiotoxic: heart rate (beats per minute, BPM), QTc prolongation, ejection fraction (EJF), and cardiac arrest. […] 1% DMSO was used as the negative control.
Cardiotoxicity evaluation was performed from 96 hpf, when the zebrafish heartbeat is already stabilised, so the analysis might not be altered by unstable beating. Zebrafish hearts were video-recorded at 4 h after drug incubation (100 hpf) and analysed using the ZeCardio® β software (Figure 3A).
After 4 h of drug incubation (100 hpf), zebrafish larvae were anesthetized by immersion in […] tricaine methanesulfonate (A4050, Sigma-Aldrich, Saint Louis, MO, USA)/E3 solution. […] Embryos were positioned in an agarose based mold to allow their appropriate orientation under the fluorescence stereo microscope (Olympus MVX10). Individual fluorescent hearts were recorded during 60 s each (Figure 6A). Videos were acquired with a high-speed recording camera (Hamamatsu C11440 ORCA-flash 2.8) and analysed with the ZeCardio® β software to extract different cardiac parameters—heart rate, cardiac arrest, QTc prolongation, and Ejection Fraction (EJF) (Figure 6B). […]
Heart beat frequency for each chamber is detected and frequencies are presented in the GUI as a mean. […] In the same fashion, chamber specific cardiac arrest is measured as the longest beating pause (Figure 6H). […]

[4] = test system: humans; conditions: known toxicity in humans, ref TOXNET (HSDB), Side effects (EMBL), drugs.com, cited from earlier work

## Nc1nc2ccc(OC(F)(F)F)cc2s1 [Riluzole, riluzole]
[1]
  96 hpf LOEC: 10 µM
  96 hpf NOEC: 1 µM
[2]
  LC50: 13.7 µM
[3]
  Heart rate (beats per minute) compared to DMSO-only: decreased the heart rate
  Longest cardiac arrest compared to DMSO-only: Longer cardiac arrest
[4]; [22],[30],[31],[34],[35]
  Neurotoxicity (toxicity in humans): Safe
[4]; ema.europa, [19],[20],[21]
  Cardiotoxicity (toxicity in humans): Toxic ^2,3
[4]; ema.europa, [24],[26],[27],[32],[33]
  Hepatotoxicity (toxicity in humans): Toxic ^2,3
